Data as given in article PMC3488261.
For at least one entry, the source does not settle the construct or the ends of the probe. At least one verdict was read from the data and is not stated in words by the source.

By UniProt entry, the sequences of proteins in these tests, tags left out. Residues count along the entry.
UniProt Q13569, 111-308: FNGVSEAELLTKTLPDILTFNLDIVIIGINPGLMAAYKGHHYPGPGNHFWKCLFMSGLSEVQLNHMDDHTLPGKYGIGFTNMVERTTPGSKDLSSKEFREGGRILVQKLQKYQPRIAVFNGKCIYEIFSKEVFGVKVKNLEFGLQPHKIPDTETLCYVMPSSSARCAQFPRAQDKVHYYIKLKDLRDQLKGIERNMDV

Molecular target: TDG catalytic domain (pXC1056) (Homo sapiens) (UniProt Q13569)
Assay: EMSA
Conditions: 1 uM TDG, 0.5 uM DNA; 5caC at strand 1 position 19; EMSA: 10 mM Tris-HCl pH 8.0, 1 mM EDTA, 0.1% BSA, 37 C 15 min; 10% native PAGE in 1x TBE; recombinant protein; residues 111-308; protein details: His6 removed by thrombin, N-terminal GSHMAS left; label: 5'-FAM strand 1

“TCGGATGTTGTGGGTCAGCGCATGATAGTGTA (double strand) [32-bp G:5caC]”: binds.
